Tests used:
[1] = Sensory evaluation of tablets, forced triangle test, co-crystal vs. dry-mix
[2] = Sensory profiling of tablets by trained panelists, co-crystal vs. dry mix reference; conditions: tablets with 25 mg NaCl, 95% confidence

| Structure (SMILES) | panelists, out of the correct answers, who found the co-crystal saltier ([1]; method 1) | panelists, out of the correct answers, who said it would dissolve faster ([1]; method 1) | correct answers in forced triangle test ([1]; method 1 (crunched, kept in mouth to dissolve slowly), out of 31 answers) | panelists, out of the correct answers, who found the co-crystal saltier ([1]; method 2) | panelists, out of the correct answers, who said it would dissolve faster ([1]; method 2) | correct answers in forced triangle test ([1]; method 2 (crunched and chewed constantly), out of 31 answers) | perceived melting vs. dry mix tablet [2] | perceived saltiness vs. dry mix tablet (upfront, overall, saltiness persistence, overall persistence) [2] | correct answers in forced triangle test ([1]; method 2 (crunched and chewed constantly), out of 28 answers) |
| --- | --- | --- | --- | --- | --- | --- | --- | --- | --- |
| O.OC[C@H]1O[C@H](O)[C@H](O)[C@@H](O)[C@@H]1O.OC[C@H]1O[C@H](O)[C@H](O)[C@@H](O)[C@@H]1O.[Cl-].[Na+] [(Glucose)2•NaCl•H2O co-crystal, (α-D-Glucose)2⋅NaCl⋅H2O] | seven | four | 22 | six | four | 17 | significantly faster | significantly saltier | – |
| O=C[C@H](O)[C@H](O)[C@H](O)CO.[Cl-].[Na+] [ribose⋅NaCl co-crystal, D-(−)-Ribose⋅NaCl] | – | – | – | six | – | – | – | significantly saltier | 19 |

Reference: US20180206529A1, “FAST-DISSOLVING, CO-CRYSTALLINE FORMS OF SODIUM CHLORIDE” (NESTEC S.A., priority 2015, published 2018)
